# According to patent US20260216144A1, “TARGETING MB2 OF THE MYC ONCOGENE AND ITS INTERACTION WITH TRRAP IN CANCER” (priority 2019, published 2026):
# Tested on: MYC: TRRAP
# Assay: CD spectroscopy of MYC 1-190, TRRAP 2033-2088 and their mixture in the presence of additives
# Set-up: species or system human
# Conditions: CD spectra with additive; Table 3
row,Compound,Secondary Structure
1,"OCC(F)(F)F [2,2,2-Trifluoroethanol]",largest gain in secondary structure; also recorded: Highly α-helical
2,C[N+](C)(C)CC(=O)O [Betaine],Unstructured
3,O=S(=O)([O-])[O-].[Cu+2] [CuSO4],Unstructured
4,CCO [Ethanol],Unstructured
5,OCCO [Ethylene Glycol],α-helical
6,OCC(O)CO [Glycerol],Partially α-helical
7,NCC(=O)O [Glycine],Unstructured
8,CO [Methanol],Unstructured
9,OC[C@H]1O[C@H](O[C@H]2O[C@H](CO)[C@@H](O)[C@H](O)[C@H]2O)[C@H](O)[C@@H](O)[C@@H]1O [Trehalose],Unstructured
10,C[N+](C)(C)[O-] [Trimethylamine N-oxide],Unstructured
11,[Cl-].[Cl-].[Zn+2] [ZiCl2],Unstructured

# “Also recorded” adds a separate entry of the source.
